From paper PMC12040169 (PLOS Biology, 2025)
Some of the results follow.

What follows are compounds tested on T1, CTL2-GFP (C. trachomatis L2/434/Bu, GFP-expressing). Conditions: bulk GFP, single well; 28.5 h, 10 µM; inhibitor.
T1 construct: L2/434/Bu, GFP-expressing
Design: species or system HeLa; Intracellular C. trachomatis growth in HeLa cells, bulk GFP fluorescence relative to DMSO

Row | Compound | % of control remaining
1 | COC(=O)N1CC2(CCCCC2NCc2c[nH]c(C)n2)c2ccccc21 (centres unmarked) [CBK083547T] | 166.203%
2 | CC(=O)N1CCc2sccc2C1c1ccc(NCc2ccc(F)cc2)cc1 (centres unmarked) [CBK286442] | 117.982%
3 | COCc1cccc(-c2ncc(OCc3ccccn3)nc2N)c1 [CBK145108] | 100%
4 | COCc1ccc(C(=O)N2CCC(c3cc4ncccc4[nH]3)CC2)o1 [CBK283373] | 127.412%
5 | COCCNC(=O)CN(C)c1nc(-c2ccncc2)nc2ccccc12 [CBK305611] | 104.077%
6 | O=C(O)CCC(=O)Nc1ccc(-c2ccc([N+](=O)[O-])cc2)cc1 [CBK261637] | 93.328%
7 | CCN(CC)CCN1C(=O)C(O)=C(C(=O)c2ccc(Cl)cc2)C1c1cccc(Br)c1 (centres unmarked) [CBK265165] | 107.351%
8 | CC(=O)Nc1cccc2c1NSN2 [CBK027082] | 123.039%
9 | Cc1ccccc1Cn1nc(C)c(NC(=O)c2nc3n(n2)C(C(F)F)CC(C)N3)c1C (centres unmarked) [CBK267633] | 104.947%
10 | CSc1nccc(OCCOc2nccnc2N2CCNCC2)n1 [CBK000718G] | 131.576%
11 | CC1CN(C(=O)OC(C)(C)C)CCN1c1nc2ccccc2nc1O (centres unmarked) [CBK003877C] | 110.414%
12 | COc1ccc(-c2cc(C(=O)N[C@H]3CCN(Cc4ccccc4)C3)cnc2-c2ccccc2)cn1 [CBK037605] | 103.568%
13 | COc1cccc(C2C(C(=O)c3ccc(Br)cc3)=C(O)C(=O)N2CCCN2CCOCC2)c1 (centres unmarked) [CBK264862] | 77.1765%
14 | CC(=O)c1ccc(-c2cc(C(=O)Nc3ccc4c(c3)OCCO4)cnc2-c2ccc(Cl)cc2)s1 [CBK036627] | 91.6146%
15 | COc1ccc(C(=O)N2CCN(Cc3ccccc3)CC2)c(OC)n1 [CBK200169] | 124.052%
16 | COCCn1c(=O)n(Cc2ccc(F)cc2)c2cccnc21 [CBK283886] | 147.258%
17 | COc1cccc(NC(=O)CC(CN2CCN(CCC#N)CC2)C(=O)O)c1 (centres unmarked) [CBK286801] | 135.454%
18 | COc1cccc(/C=N/NC(=O)C(=O)NCc2ccccn2)c1 [CBK262268] | 119.909%
19 | NNC(=O)c1cc(-c2ccc(-c3ccccc3)cc2)nc2ccc(Br)cc12 [CBK261760] | 88.7612%
20 | CCOc1cc(NC2CCN(C(=O)OC(C)(C)C)CC2)ncn1 [CBK306288] | 105.006%
21 | CCCc1cc(C(N)=O)c(NC(=O)c2cc(-c3ccc(C)o3)nc3ccccc23)s1 [CBK267766C] | 84.5116%
22 | Cc1ccc(C)c(NS(=O)(=O)c2cc(C(=O)NCc3ccccn3)ccc2C)c1 [CBK269110] | 109.758%
23 | Cc1cc(Br)c(NC(=O)COc2ccc(/C=C(\C#N)C(N)=S)cc2)cc1C [CBK269014] | 142.509%
24 | O=C(CN(c1ccccc1)S(=O)(=O)c1ccccc1[N+](=O)[O-])Nc1ccc(C(F)(F)F)cc1 [CBK267137] | 78.7999%
25 | Cc1ccc(CNC(=O)Cn2cc(-c3ccc(CN4CCC(C)CC4)cc3)nn2)cc1 [CBK164706] | 122.086%
26 | COc1cc(C2NC(=O)N(CCc3ccccc3)C(c3ccccc3)=C2C(C)=O)ccc1O (centres unmarked) [CBK269024] | 121.515%

Compounds from the list above containing an NH in an aromatic ring (2):
Row | Compound | % of control remaining
1 | COC(=O)N1CC2(CCCCC2NCc2c[nH]c(C)n2)c2ccccc21 (centres unmarked) [CBK083547T] | 166.203%
4 | COCc1ccc(C(=O)N2CCC(c3cc4ncccc4[nH]3)CC2)o1 [CBK283373] | 127.412%

Some of the entries so far, as a markdown table:

| Row | Compound | % of control remaining |
| --- | --- | --- |
| 3 | COCc1cccc(-c2ncc(OCc3ccccn3)nc2N)c1 [CBK145108] | 100% |
| 4 | COCc1ccc(C(=O)N2CCC(c3cc4ncccc4[nH]3)CC2)o1 [CBK283373] | 127.412% |
| 5 | COCCNC(=O)CN(C)c1nc(-c2ccncc2)nc2ccccc12 [CBK305611] | 104.077% |

Next part.

Row | Compound | % of control remaining
27 | Cn1nc(C(C)(C)C)cc1C(=O)N1CCC(N2C(=O)OCC2(C)C)CC1 [CBK044234] | 119.868%
28 | Nc1cccc(-c2cc(Nc3cccc(OCc4ccccc4)c3)ncn2)c1 [CBK090915] | 132.957%
29 | CN(C)CCP(=O)(c1ccccc1)c1ccccc1 [CBK026596] | 103.868%
30 | CC(=O)NC[C@H]1CN(c2ccc(-c3nnc(C(C)O)s3)c(F)c2)C(=O)O1 (some centres unmarked) [CBK017968] | 11.2033%
31 | COc1ccc(-c2noc(CSc3nnc(-c4ccncc4)n3C)n2)cc1 [CBK268245] | 177.249%
32 | O=C(O)CCNC(=O)c1ccc(NS(=O)(=O)c2ccc(C3CCCCC3)cc2)cc1 [CBK296991] | 129.314%
33 | C[C@H](c1ccccc1)n1c(=O)[nH]c2ncc(-c3ccco3)nc21 [CBK064415] | 149.784%
34 | Cc1ccc(S(=O)(=O)Nc2ccnc(-c3ccc(CN4C(=O)CSC4=O)cc3)n2)cc1 [CBK067925] | 124.884%
35 | Cc1nc2ccccc2[nH]/c1=N/O [CBK018103] | 124.749%
36 | CCc1ccc(OCC(=O)Nc2ccc3oc(-c4ccc(F)cc4Cl)nc3c2)cc1 [CBK265010] | 100%
37 | CCN(CC)C(=O)CN1C(=O)C2(Nc3ccccc3C(=O)N2c2ccc(F)cc2)c2ccccc21 (centres unmarked) [CBK103751] | 91.0053%
38 | COc1ccc(Cn2nnnc2C(CC(C)C)N2CCC(C(N)=O)CC2)cc1 (centres unmarked) [CBK084783] | 113.651%
39 | CCn1c(CNC(=O)c2cc(C(C)C)on2)nc2ccccc21 [CBK281393] | 146.716%
40 | CC(NC(=O)c1cnc(-c2ccc(Cl)cc2)c(-c2ccc(O)cc2)c1)c1ccc(F)cc1 (centres unmarked) [CBK036751] | 163.358%
41 | O=C(O)c1ccc(N2C(=O)CC(c3ccccc3)CC2=O)cc1 [CBK291169] | 149.066%
42 | CCN(Cc1ncc[nH]1)[C@H]1CCO[C@@H](c2ccccc2-c2ccc(OC)cc2)C1 [CBK285842] | 128.444%
43 | Cc1nn(C)cc1CN(Cc1ccccc1)CC1CCCO1 (centres unmarked) [CBK283264] | 117.576%
44 | O=C(Cc1ccsc1)N1CCC2(CCCNC2)C1 (centres unmarked) [CBK137153C] | 112.404%
45 | CCCn1c(C)nnc1CN(CC1CCCO1)C1CCCC1 (centres unmarked) [CBK304465] | 184.549%
46 | CC(Sc1nc2ccc(Cl)cc2o1)C(=O)N1CCOCC1 (centres unmarked) [CBK305164] | 122.09%
47 | COCc1cc(C)nc(SCC(=O)O)c1C#N [CBK270463] | 109.517%
48 | COCCCn1c(SCc2csc(-c3ccc(C)cc3)n2)n[nH]c1=O [CBK295657] | 103.668%
49 | O=c1cc(CN2CCC(Oc3nccnc3OCc3ccc(Cl)c(Cl)c3)CC2)[nH]c(=O)[nH]1 [CBK153784] | 111.176%
50 | CCNC(=O)COc1ccc(C=Cc2nc(-c3ccccc3)c(C(=O)O)s2)cc1OCC [CBK296644] | 150.422%
51 | CN1CCN(C(=O)c2cnn(-c3ccccc3)c2NC(=O)c2ccc(F)cc2)CC1 [CBK265198] | 137.613%
52 | O=C(c1cncnc1)N1Cc2ccccc2C1 [CBK200223] | 67.768%

Row | Compound | % of control remaining
53 | Cc1c(C(=O)N2CCNCC2C)nnn1-c1ccc2ncccc2c1 (centres unmarked) [CBK304473] | 146.794%
54 | CNC(=O)C1(Cc2ccccc2-c2ccccc2)CCN(C(=O)c2cccc(OC)c2)CC1 [CBK285922] | 126.815%
55 | O=C(O)C1Nc2ccc(Oc3ccccc3)cc2C2C=CCC12 (centres unmarked) [CBK286542] | 122.774%
56 | O=C(C1CCN(S(=O)(=O)c2ccc(F)cc2)C1)N1CCN(C2CCCC2)CC1 (centres unmarked) [CBK285703] | 129.516%
57 | O=C(c1cc(F)c(F)cc1F)N1CCC2(CCCN(C(=O)c3cccc4[nH]ccc34)C2)C1 (centres unmarked) [CBK131544] | 113.45%
58 | CC(=O)OCc1nc2cc(F)c(F)cc2[nH]1 [CBK110117] | 144.53%
59 | CC(=O)N1C[C@H]2CCCN(S(=O)(=O)c3cccs3)[C@H]2C1 [CBK285275] | 118.635%
60 | CCCCN(C)c1c(CC)nc2ccc(C(=O)NCCN3CCCC3)cn12 [CBK145440] | 127.538%
61 | CCOC(=O)c1cc2c3ccccc3n(CC)c2nc1N [CBK100822] | 137.918%
62 | Cc1cccn2c(CN3CCCC(O)C3)c(C(=O)N3CCCCC3)nc12 (centres unmarked) [CBK307342] | 116.438%
63 | CC(NC(=O)CCc1cnn(C)c1)c1nc(-c2ccncc2)cs1 (centres unmarked) [CBK305496] | 126.163%
64 | O=C(Cc1ccsc1)N1CCC[C@@H]1Cn1c(=O)oc2ccccc21 [CBK284530] | 155.454%
65 | Cc1ncccc1OC1(C(=O)NCc2n[nH]c3c2CCC3)CCNCC1 [CBK307057] | 140.547%
66 | CCN(CC)CCN1CCN(c2cc(-c3cccc4ccccc34)ncn2)CC1 [CBK091196] | 199.623%
67 | OC(CSc1ccccc1)CN1CCC(Nc2nccc(C(F)(F)F)n2)CC1 (centres unmarked) [CBK074648] | 126.921%
68 | CN(C)CC(C)(C)CNC=C1C(=O)CC(C)(C)CC1=O [CBK262046] | 100%
69 | CC1=CC(C)C(C(=O)O)C(C(=O)NCc2cccnc2)C1 (centres unmarked) [CBK293964] | 126.845%
70 | O=C(c1nccs1)C1CCN(C(=O)C2(c3ccccc3)CC2)CC1 [CBK284206] | 114.443%
71 | Fc1ccc(C2C=C(c3ccc(F)cc3F)Nc3ncnn32)cc1 (centres unmarked) [CBK288095] | 137.624%
72 | O=C(O)CCc1ccc(NS(=O)(=O)c2ccc(N3CCCC3=O)cc2)cc1 [CBK299788] | 111.102%
73 | Cc1ccc(S(=O)(=O)NCc2ccc(-c3nn(C)cc3-c3ccncc3C)cc2)cc1 [CBK285632] | 121.832%
74 | CC(C)CN1C[C@H]2N(C)C(=O)c3ccccc3C(=O)[C@@]2(C)C1 [CBK283477] | 100.163%
75 | Cc1cc(Cl)ccc1Nc1nnc(C)c(=O)[nH]1 [CBK287922] | 118.408%
76 | Cc1cc(CCCC(=O)NCc2ccc(-c3ccc(C(N)=O)c(C)n3)cc2)ccc1F [CBK286016] | 130.639%
77 | Cc1c(C(=O)N2CCCC(c3cnccn3)C2)oc2c(F)cccc12 (centres unmarked) [CBK285302] | 100.212%
